For at least one compound, name, drawing or mass did not settle the structure.
Biological target: human JAK1 (a.a. 837-1142)
Experiment: In vitro JAK kinase assay (HTRF, phosphorylation of a biotinylated peptide), JAK1
Format: biochemical
Details: ratio of JAK2 IC50 to JAK1 IC50, measured at 1 mM ATP
Method: Compounds herein were tested for inhibitory activity of JAK targets according to the following in vitro assay described in Park et al., Analytical Biochemistry 1999, 269, 94-104. The catalytic domains of human JAK1 (a.a. 837-1142), Jak2 (a.a. 828-1132) and Jak3 (a.a. 781-1124) with an N-terminal His tag were expressed using baculovirus in insect cells and purified. The catalytic activity of JAK1, JAK2 or JAK3 was assayed by measuring the phosphorylation of a biotinylated peptide. The phosphorylated peptide was detected by homogenous time resolved fluorescence (HTRF). […] Reactions were carried out at room temperature for 1 hr and then stopped with 20 μL 45 mM EDTA, 300 nM SA-APC, 6 nM Eu-Py20 in assay buffer (Perkin Elmer, Boston, Mass.). Binding to the Europium labeled antibody took place for 40 minutes and HTRF signal was measured on a Fusion plate reader (Perkin Elmer, Boston, Mass.).

## N#CCC1(n2cc(-c3ncnc4[nH]ccc34)cn2)CN(C2CCN(C(=O)OCC3CCCC3)CC2)C1 [Example 396, cyclopentylmethyl 4-{3-(cyanomethyl)-3-[4-(7H-pyrrolo[2,3-d]pyrimidin-4-yl)-1H-pyrazol-1-yl]azetidin-1-yl}piperidine-1-carboxylate]
  IC50 Ratio JAK2/JAK1: 7.1

## N#CCC1(n2cc(-c3ncnc4[nH]ccc34)cn2)CN(C2CCN(C(=O)OCC3CCCCC3)CC2)C1 [Example 397, cyclohexylmethyl 4-{3-(cyanomethyl)-3-[4-(7H-pyrrolo[2,3-d]pyrimidin-4-yl)-1H-pyrazol-1-yl]azetidin-1-yl}piperidine-1-carboxylate]
  IC50 Ratio JAK2/JAK1: 21.7

From patent publication US9999619B2, “Piperidin-4-yl azetidine derivatives as JAK1 inhibitors” (Incyte Corporation, priority 2010, dated 2018)
